PubChem BioAssay AID1259405 | NCATS | 2018

- Purpose: 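Knock-downs that lift recombinant protein yield in hamster ovary cells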 (primary screen)
- Cell system: Chinese hamster CHO-K1 ovary cells with stable secreted eGFP expression
- Reagent: single siRNA against mouse genes, 0.8 pmol siRNA per well (2 µl of 400 nM stock)
- Time to read-out: 3 days
- Detection: 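Percent of the per-plate non-targeting control median for intracellular GFP per well by laser scanning cytometry and for cell viability by ATP luminescence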
- Scale: GFP, % of control: higher = more GFP per well, higher productivity; viability (ATP), % of control: higher = more viable cells (more ATP)
- Rule for the call: 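a knock-down is called active if GFP reaches 120% or more of non-targeting control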
In all, the deposit lists about 50,000 reagents; this is an unselected part. Of all reagents, about 4,000 (8%) got an active call. 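Mouse siRNA library applied to hamster cells; one well for each siRNA.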 A number with no mark means an inactive call. Reagents against one gene are numbered here. Reagent sequences are not shown.

no.	gene knocked down	reagent	GFP, % of control	viability (ATP), % of control
1	Fbxo31 (F-box protein 31)	1	93.6	85.3
2	Fbxo31 (F-box protein 31)	2	104	50.3
3	Fbxo31 (F-box protein 31)	3	126 (active)	98.5
4	Tpbg (trophoblast glycoprotein)	1	125 (active)	90.2
5	Tpbg (trophoblast glycoprotein)	2	77.1	80.4
6	Tpbg (trophoblast glycoprotein)	3	52.2	69.7
7	Exosc1 (exosome component 1)	1	61.9	75.2
8	Exosc1 (exosome component 1)	2	135 (active)	96.9
9	Exosc1 (exosome component 1)	3	67.7	64.5
10	Amt (aminomethyltransferase)	1	81.7	36.4
11	Amt (aminomethyltransferase)	2	104	75.2
12	Amt (aminomethyltransferase)	3	85.9	94.1
13	Loxl3 (lysyl oxidase-like 3)	1	50.7	54.2
14	Loxl3 (lysyl oxidase-like 3)	2	42.5	39.3
15	Loxl3 (lysyl oxidase-like 3)	3	62.1	67.3
16	Clec16a (C-type lectin domain family 16, member A)	1	88.2	100
17	Clec16a (C-type lectin domain family 16, member A)	2	82.3	36.8
18	Clec16a (C-type lectin domain family 16, member A)	3	105	101
19	Ankrd23 (ankyrin repeat domain 23)	1	73.6	51.5
20	Ankrd23 (ankyrin repeat domain 23)	2	61.9	59.4
21	Ankrd23 (ankyrin repeat domain 23)	3	106	82.9
22	Senp8 (SUMO peptidase family member, NEDD8 specific)	1	107	84.6
23	Senp8 (SUMO peptidase family member, NEDD8 specific)	2	77.3	68.8
24	Tapt1 (transmembrane anterior posterior transformation 1)	1	71.9	81.2
25	Tapt1 (transmembrane anterior posterior transformation 1)	2	103	89.5
26	Tapt1 (transmembrane anterior posterior transformation 1)	3	79.7	65.6
27	Gm11992 (predicted gene 11992)	1	61.6	73.4
28	Gm11992 (predicted gene 11992)	2	84.5	58.6
29	Gm11992 (predicted gene 11992)	3	60.7	65.1
30	Ly75 (lymphocyte antigen 75)	1	106	92
31	Ly75 (lymphocyte antigen 75)	2	151 (active)	88.3
32	Ly75 (lymphocyte antigen 75)	3	82.4	69.2
33	Grb7 (growth factor receptor bound protein 7)	1	42.9	60.1
34	Grb7 (growth factor receptor bound protein 7)	2	75.2	89.2
35	Grb7 (growth factor receptor bound protein 7)	3	62.9	50.7
36	Ears2 (glutamyl-tRNA synthetase 2, mitochondrial)	1	76.8	74.8
37	Ears2 (glutamyl-tRNA synthetase 2, mitochondrial)	2	86.8	70.9
38	Ears2 (glutamyl-tRNA synthetase 2, mitochondrial)	3	181 (active)	61.9
39	Nono (non-POU-domain-containing, octamer binding protein)	1	56.6	65
40	Nono (non-POU-domain-containing, octamer binding protein)	2	84.6	82.1
41	Urb2 (URB2 ribosome biogenesis 2 homolog (S. cerevisiae))	1	73.4	31.4
42	Urb2 (URB2 ribosome biogenesis 2 homolog (S. cerevisiae))	2	59.4	80.1
43	Urb2 (URB2 ribosome biogenesis 2 homolog (S. cerevisiae))	3	95.8	66.4
44	Mnat1 (menage a trois 1)	1	37.8	45.2
45	Mnat1 (menage a trois 1)	2	96	81.1
46	Dnajb12 (DnaJ heat shock protein family (Hsp40) member B12)	1	92.3	43.7
47	Dnajb12 (DnaJ heat shock protein family (Hsp40) member B12)	2	96.7	79.7
48	Dnajb12 (DnaJ heat shock protein family (Hsp40) member B12)	3	53.6	52
49	Jarid2 (jumonji and AT-rich interaction domain containing 2)	1	133 (active)	113
50	Jarid2 (jumonji and AT-rich interaction domain containing 2)	2	64.2	76
51	Jarid2 (jumonji and AT-rich interaction domain containing 2)	3	70.3	91.6
52	Or5h18 (olfactory receptor family 5 subfamily H member 18)	1	73.3	75.5
53	Or5h18 (olfactory receptor family 5 subfamily H member 18)	2	55	85.6
54	Or5h18 (olfactory receptor family 5 subfamily H member 18)	3	76	97.5
55	Cyp2j11 (cytochrome P450, family 2, subfamily j, polypeptide 11)	1	103	105
56	Cyp2j11 (cytochrome P450, family 2, subfamily j, polypeptide 11)	2	69.1	74.5
57	Cyp2j11 (cytochrome P450, family 2, subfamily j, polypeptide 11)	3	115	76.6
58	Cxcl16 (C-X-C motif chemokine ligand 16)	1	113	73.6
59	Cxcl16 (C-X-C motif chemokine ligand 16)	2	96.7	78.9
60	Vkorc1 (vitamin K epoxide reductase complex, subunit 1)	1	49.1	55.3
61	Vkorc1 (vitamin K epoxide reductase complex, subunit 1)	2	88.2	72.9
62	Vkorc1 (vitamin K epoxide reductase complex, subunit 1)	3	78.9	82.1
63	Get3 (guided entry of tail-anchored proteins factor 3, ATPase)	1	94.9	56.9
64	Get3 (guided entry of tail-anchored proteins factor 3, ATPase)	2	108	90.9
65	Get3 (guided entry of tail-anchored proteins factor 3, ATPase)	3	93	62.7
66	Vmn1r54 (vomeronasal 1 receptor 54)	1	34.8	50
67	Vmn1r54 (vomeronasal 1 receptor 54)	2	79	56.4
68	Vmn1r54 (vomeronasal 1 receptor 54)	3	50.8	78.4
69	Cdkn2c (cyclin dependent kinase inhibitor 2C)	1	92.8	104
70	Cdkn2c (cyclin dependent kinase inhibitor 2C)	2	43.3	61.2
71	Gipc1 (GIPC PDZ domain containing family, member 1)	1	107	131
72	Gipc1 (GIPC PDZ domain containing family, member 1)	2	155 (active)	162
73	Gipc1 (GIPC PDZ domain containing family, member 1)	3	106	111
74	Rxylt1 (ribitol xylosyltransferase 1)	1	75.4	103
75	Rxylt1 (ribitol xylosyltransferase 1)	2	107	125
76	Rxylt1 (ribitol xylosyltransferase 1)	3	142 (active)	115
77	4930432E11Rik (RIKEN cDNA 4930432E11 gene)	1	118	92.7
78	4930432E11Rik (RIKEN cDNA 4930432E11 gene)	2	92.5	92
79	4930432E11Rik (RIKEN cDNA 4930432E11 gene)	3	66	78.7
80	Parp11 (poly (ADP-ribose) polymerase family, member 11)	1	87.4	123
81	Parp11 (poly (ADP-ribose) polymerase family, member 11)	2	75.2	99
82	Parp11 (poly (ADP-ribose) polymerase family, member 11)	3	85.5	120
83	Or2t45 (olfactory receptor family 2 subfamily T member 45)	1	40.3	51.1
84	Or2t45 (olfactory receptor family 2 subfamily T member 45)	2	48.6	49.3
85	Or2t45 (olfactory receptor family 2 subfamily T member 45)	3	31.7	80.5
